Reference: article PMC13212363

Target: T1, NSF-tagged PPP2R2B (UniProt Q00005)
T1 sequence: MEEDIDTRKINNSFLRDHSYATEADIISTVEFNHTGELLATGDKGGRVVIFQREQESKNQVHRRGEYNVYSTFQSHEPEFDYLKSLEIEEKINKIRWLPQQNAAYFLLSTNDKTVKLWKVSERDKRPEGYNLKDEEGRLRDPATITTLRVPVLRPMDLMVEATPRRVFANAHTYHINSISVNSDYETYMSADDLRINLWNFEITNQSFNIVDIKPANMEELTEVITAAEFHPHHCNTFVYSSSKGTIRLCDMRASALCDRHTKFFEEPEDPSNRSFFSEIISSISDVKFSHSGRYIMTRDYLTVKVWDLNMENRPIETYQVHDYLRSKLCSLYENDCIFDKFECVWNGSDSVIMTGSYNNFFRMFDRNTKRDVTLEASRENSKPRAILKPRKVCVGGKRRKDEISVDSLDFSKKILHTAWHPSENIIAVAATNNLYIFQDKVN
Experiment: pull-down; NSF-tagged B subunit co-expressed with myc-tagged PPP2CA constructs in HEK293; lysate (50 mM Tris-HCl 7.5, 150 mM NaCl, 1 mM EDTA, 2.5 mM EGTA, 1% NP-40) on streptavidin beads for 4 h, washed three times; western blot

endogenous catalytic PP2A subunit (human (endogenous in HEK293)) (enzyme)
binding: binds

Results are given in words; binding and its absence hold for the method and conditions named. Binding seen in cells or lysates may run through a third protein. A result given as binding can be weak or reduced; the word gives no strength. Tags and fused reporters may be left off the sequences shown.
